Source: article PMC6679193, “Unraveling the Impact of Cysteine-to-Serine Mutations on the Structural and Functional Properties of Cu(I)-Binding Proteins” (International Journal of Molecular Sciences, 2019)

Assays:
Assay in all cases: EMSA (fluorescence)
[1] = target: T1, CueR_C112S (Escherichia coli) (UniProt P0A9G4); settings: 3 uM protein, 1.5 uM DNA, formaldehyde 0.74% after complex formation, similar to WT; 25 mM Tris-base pH 8, 250 mM NaCl, 5% v/v glycerol, 30 min at RT; then 0.74% formaldehyde 30 min on ice; 4.5% (37:1) native PAGE; recombinant protein; label: 5'-Cy5 on strand 1
T1 sequence (looked up, limits assumed): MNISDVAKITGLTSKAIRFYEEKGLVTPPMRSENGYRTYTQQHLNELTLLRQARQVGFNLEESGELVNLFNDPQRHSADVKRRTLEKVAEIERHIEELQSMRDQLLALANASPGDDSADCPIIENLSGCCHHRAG

[2] = target: T2, CueR_C112S_C120S (Escherichia coli) (UniProt P0A9G4); settings: 3 uM protein, 1.5 uM DNA, formaldehyde 0.74% after complex formation, similar to WT; 25 mM Tris-base pH 8, 250 mM NaCl, 5% v/v glycerol, 30 min at RT; then 0.74% formaldehyde 30 min on ice; 4.5% (37:1) native PAGE; recombinant protein; label: 5'-Cy5 on strand 1
T2 sequence (looked up, limits assumed): T1 sequence (looked up, limits assumed) with C120S

[3] = target: T3, CueR_C120S (Escherichia coli) (UniProt P0A9G4); settings: 3 uM protein, 1.5 uM DNA, formaldehyde 0.74% after complex formation, similar to WT; 25 mM Tris-base pH 8, 250 mM NaCl, 5% v/v glycerol, 30 min at RT; then 0.74% formaldehyde 30 min on ice; 4.5% (37:1) native PAGE; recombinant protein; label: 5'-Cy5 on strand 1
T3 sequence (looked up, limits assumed): T1 sequence (looked up, limits assumed) with S112C, C120S

[4] = target: T4, WT-CueR (Escherichia coli) (UniProt P0A9G4); settings: 3 uM protein, 1.5 uM DNA, formaldehyde 0.74% after complex formation; 25 mM Tris-base pH 8, 250 mM NaCl, 5% v/v glycerol, 30 min at RT; then 0.74% formaldehyde 30 min on ice; 4.5% (37:1) native PAGE; recombinant protein; label: 5'-Cy5 on strand 1
T4 sequence (looked up, limits assumed): T1 sequence (looked up, limits assumed) with S112C

Measured: binding result

TTGACCTTCCCCTTGCTGGAAGGTTTA (double strand) [copA promoter DNA fragment]
binds: all assays above

Changes are numbered by the printed parent chain. For at least one entry, the source does not settle the construct or the ends of the probe. For some of these results: At least one verdict rests on a figure or table, not on a statement of the authors. Where a protein sequence is shown, tags need not be part of it.
